Measured values as given in the supplement of paper PMC7666118.
This is one part of the list.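 How the source made its calls: active = dose-dependent thermal stabilisation significant by F-test of dose-response against flat model at 10% FDR; inactive = not significant.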

Protein sequences, listed by entry. Tags and fused reporters are not part of them. Lines headed by an entry give the natural chain unless they say otherwise; changes in a name come on top.
UniProt O60879: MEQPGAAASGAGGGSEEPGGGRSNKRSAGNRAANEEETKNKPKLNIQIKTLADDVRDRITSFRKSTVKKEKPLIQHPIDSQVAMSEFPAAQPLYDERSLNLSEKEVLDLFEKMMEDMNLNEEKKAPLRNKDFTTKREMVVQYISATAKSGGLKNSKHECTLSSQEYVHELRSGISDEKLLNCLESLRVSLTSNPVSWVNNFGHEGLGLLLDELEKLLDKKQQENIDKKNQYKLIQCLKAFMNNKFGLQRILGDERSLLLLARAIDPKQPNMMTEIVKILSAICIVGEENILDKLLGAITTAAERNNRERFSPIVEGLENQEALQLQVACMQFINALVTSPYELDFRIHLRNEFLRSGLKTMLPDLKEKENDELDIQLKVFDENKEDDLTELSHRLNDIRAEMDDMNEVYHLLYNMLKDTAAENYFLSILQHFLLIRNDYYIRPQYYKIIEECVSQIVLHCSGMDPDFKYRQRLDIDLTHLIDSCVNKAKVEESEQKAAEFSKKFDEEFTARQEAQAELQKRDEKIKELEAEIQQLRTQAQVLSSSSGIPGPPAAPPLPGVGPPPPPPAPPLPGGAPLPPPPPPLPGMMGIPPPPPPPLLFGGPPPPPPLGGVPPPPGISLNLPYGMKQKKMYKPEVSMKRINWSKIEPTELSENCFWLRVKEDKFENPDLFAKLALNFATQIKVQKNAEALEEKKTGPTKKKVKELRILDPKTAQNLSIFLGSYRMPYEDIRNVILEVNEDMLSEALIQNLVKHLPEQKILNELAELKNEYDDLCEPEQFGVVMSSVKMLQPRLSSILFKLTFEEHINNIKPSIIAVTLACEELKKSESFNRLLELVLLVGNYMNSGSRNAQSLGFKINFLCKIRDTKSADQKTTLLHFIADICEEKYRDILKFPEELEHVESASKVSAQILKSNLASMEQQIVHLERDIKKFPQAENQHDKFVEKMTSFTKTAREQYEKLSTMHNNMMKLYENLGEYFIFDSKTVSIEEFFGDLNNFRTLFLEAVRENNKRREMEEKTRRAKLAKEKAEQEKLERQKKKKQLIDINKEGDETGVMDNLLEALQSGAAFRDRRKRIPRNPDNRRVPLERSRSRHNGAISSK
UniProt Q9UER7, whole entry: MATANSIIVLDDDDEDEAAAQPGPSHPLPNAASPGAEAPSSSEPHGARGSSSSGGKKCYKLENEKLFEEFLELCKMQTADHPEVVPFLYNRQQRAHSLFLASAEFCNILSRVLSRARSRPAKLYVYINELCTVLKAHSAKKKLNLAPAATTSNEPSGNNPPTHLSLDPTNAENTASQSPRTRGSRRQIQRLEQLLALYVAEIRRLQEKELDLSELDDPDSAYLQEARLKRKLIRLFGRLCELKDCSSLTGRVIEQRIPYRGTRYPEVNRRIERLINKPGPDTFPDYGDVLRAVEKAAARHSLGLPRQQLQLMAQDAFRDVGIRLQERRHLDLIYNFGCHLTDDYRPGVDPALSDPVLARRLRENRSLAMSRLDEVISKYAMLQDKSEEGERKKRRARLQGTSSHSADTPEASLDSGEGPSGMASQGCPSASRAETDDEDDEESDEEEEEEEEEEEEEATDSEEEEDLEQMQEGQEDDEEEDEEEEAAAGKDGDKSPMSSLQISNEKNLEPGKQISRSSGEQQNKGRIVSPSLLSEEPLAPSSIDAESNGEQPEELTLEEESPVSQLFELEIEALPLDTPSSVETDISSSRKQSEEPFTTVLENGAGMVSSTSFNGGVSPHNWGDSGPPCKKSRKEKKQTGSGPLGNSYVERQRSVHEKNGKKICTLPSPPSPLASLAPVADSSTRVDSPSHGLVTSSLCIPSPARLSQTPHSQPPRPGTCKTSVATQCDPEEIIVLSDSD
UniProt Q9NXE8: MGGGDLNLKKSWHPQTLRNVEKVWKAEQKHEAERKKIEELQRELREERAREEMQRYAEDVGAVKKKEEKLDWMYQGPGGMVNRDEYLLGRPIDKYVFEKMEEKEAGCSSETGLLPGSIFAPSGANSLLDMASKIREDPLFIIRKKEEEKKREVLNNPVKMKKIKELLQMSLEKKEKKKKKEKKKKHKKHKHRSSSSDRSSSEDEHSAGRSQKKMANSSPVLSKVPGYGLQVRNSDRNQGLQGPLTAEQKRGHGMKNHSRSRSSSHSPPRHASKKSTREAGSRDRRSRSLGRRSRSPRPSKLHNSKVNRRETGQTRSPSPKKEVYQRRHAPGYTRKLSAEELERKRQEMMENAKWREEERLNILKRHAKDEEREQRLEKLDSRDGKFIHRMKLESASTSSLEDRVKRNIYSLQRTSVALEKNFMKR
UniProt Q99704: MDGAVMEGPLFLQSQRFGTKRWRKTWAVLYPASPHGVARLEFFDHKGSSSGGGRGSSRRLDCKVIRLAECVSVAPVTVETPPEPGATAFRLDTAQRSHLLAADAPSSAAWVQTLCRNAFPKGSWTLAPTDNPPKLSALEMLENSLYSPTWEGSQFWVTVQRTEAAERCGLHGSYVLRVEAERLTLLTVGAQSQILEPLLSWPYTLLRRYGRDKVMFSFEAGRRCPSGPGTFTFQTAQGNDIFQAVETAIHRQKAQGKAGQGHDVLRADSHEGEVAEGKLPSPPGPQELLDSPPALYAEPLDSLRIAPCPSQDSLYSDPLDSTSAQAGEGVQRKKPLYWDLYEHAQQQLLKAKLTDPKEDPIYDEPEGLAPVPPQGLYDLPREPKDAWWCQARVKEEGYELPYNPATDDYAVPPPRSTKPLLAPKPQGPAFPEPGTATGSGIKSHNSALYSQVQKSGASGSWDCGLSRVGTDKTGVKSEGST
UniProt Q9BTZ2: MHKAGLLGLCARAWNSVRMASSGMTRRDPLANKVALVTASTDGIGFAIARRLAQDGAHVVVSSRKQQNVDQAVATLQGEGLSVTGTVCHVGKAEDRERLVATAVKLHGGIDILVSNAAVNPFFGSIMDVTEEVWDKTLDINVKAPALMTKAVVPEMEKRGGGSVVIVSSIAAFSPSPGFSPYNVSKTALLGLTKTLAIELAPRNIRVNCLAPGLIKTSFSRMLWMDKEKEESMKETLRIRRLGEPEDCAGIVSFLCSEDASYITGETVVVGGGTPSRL
UniProt O77932: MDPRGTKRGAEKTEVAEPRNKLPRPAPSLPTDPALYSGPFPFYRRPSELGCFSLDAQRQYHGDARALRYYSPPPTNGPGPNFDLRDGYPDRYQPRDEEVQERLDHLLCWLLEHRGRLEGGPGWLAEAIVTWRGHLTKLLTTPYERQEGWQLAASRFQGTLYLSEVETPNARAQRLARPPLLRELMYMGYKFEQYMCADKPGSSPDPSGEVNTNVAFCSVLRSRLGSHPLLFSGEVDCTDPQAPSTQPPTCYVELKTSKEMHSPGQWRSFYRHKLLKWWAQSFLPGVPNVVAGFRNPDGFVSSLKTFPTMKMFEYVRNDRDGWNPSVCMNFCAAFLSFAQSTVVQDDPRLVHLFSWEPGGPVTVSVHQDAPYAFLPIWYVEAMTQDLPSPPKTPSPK
UniProt Q9NV06: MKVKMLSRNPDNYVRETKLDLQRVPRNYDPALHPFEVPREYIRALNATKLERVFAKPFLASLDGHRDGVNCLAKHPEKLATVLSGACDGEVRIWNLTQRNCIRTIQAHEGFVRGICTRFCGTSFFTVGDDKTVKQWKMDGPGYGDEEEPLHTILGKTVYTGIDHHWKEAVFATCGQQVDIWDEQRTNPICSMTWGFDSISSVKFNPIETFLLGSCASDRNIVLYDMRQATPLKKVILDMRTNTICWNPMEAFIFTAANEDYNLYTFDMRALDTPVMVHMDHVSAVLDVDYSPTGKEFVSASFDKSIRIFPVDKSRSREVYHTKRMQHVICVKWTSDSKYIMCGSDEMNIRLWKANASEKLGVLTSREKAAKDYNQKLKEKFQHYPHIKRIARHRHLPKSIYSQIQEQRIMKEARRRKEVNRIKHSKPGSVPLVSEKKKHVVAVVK
UniProt P0DTL5: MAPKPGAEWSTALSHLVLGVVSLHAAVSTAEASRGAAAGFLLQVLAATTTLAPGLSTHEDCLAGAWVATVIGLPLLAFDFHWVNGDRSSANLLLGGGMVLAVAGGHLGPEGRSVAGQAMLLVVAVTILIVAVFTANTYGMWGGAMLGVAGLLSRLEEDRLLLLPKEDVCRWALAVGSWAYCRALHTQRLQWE
UniProt Q08257: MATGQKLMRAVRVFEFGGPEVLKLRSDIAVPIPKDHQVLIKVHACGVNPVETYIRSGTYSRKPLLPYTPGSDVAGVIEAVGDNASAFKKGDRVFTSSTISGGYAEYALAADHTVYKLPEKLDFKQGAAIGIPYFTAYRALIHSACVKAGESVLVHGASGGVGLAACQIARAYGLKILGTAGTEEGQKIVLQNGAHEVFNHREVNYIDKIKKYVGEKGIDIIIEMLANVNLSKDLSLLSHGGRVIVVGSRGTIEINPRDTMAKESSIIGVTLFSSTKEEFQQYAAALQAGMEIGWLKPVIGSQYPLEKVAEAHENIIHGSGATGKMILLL
UniProt Q9BUQ8: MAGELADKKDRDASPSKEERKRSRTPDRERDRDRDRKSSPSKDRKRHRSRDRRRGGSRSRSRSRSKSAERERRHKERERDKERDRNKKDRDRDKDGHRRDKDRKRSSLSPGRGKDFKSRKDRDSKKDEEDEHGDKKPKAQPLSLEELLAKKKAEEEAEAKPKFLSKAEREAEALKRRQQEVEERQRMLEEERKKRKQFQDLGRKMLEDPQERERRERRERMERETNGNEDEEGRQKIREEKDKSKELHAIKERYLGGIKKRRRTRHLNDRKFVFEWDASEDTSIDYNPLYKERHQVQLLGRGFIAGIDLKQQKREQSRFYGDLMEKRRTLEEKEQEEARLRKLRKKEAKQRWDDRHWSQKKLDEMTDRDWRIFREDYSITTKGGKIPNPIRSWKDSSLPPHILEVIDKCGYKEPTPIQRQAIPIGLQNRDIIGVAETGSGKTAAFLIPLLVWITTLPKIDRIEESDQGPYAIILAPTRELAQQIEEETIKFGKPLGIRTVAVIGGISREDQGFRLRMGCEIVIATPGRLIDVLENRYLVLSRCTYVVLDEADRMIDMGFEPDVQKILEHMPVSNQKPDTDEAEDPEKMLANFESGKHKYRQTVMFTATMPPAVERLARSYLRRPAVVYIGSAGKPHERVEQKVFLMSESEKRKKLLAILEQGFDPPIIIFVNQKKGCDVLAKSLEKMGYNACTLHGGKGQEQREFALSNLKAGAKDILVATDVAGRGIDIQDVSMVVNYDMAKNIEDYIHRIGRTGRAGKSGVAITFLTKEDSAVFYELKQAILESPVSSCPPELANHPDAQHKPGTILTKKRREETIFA
UniProt P55039: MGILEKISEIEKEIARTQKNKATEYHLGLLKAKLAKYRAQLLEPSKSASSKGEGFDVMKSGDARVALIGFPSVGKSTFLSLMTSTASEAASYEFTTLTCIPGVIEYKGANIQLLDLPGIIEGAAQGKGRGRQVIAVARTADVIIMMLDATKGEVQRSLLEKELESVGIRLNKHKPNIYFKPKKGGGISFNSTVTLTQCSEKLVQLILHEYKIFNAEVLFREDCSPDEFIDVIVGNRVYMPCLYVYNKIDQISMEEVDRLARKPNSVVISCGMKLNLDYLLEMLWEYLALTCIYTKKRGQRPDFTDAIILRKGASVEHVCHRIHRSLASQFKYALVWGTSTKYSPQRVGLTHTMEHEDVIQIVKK
UniProt Q9UNI6, whole entry: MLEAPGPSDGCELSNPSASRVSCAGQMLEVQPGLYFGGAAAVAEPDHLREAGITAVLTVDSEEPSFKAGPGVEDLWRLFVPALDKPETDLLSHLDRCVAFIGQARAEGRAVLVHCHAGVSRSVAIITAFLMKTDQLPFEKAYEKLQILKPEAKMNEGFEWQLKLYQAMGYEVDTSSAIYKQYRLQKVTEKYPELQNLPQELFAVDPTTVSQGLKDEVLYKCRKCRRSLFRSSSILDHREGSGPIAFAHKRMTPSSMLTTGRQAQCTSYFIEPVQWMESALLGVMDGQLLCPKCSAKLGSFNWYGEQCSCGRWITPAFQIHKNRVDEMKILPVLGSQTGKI
UniProt Q9NP97, whole entry: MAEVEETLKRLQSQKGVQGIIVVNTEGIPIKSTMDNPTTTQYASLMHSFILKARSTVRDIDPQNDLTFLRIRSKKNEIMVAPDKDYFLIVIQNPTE
UniProt O00115: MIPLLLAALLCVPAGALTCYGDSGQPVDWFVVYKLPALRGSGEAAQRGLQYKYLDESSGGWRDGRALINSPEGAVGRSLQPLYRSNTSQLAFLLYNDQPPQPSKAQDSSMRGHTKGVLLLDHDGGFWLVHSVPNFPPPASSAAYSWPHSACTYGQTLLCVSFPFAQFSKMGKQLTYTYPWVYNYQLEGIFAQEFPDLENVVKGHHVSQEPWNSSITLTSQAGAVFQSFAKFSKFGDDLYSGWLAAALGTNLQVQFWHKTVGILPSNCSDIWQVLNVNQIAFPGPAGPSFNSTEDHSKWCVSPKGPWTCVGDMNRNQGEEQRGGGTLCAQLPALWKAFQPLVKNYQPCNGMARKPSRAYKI
UniProt O43598: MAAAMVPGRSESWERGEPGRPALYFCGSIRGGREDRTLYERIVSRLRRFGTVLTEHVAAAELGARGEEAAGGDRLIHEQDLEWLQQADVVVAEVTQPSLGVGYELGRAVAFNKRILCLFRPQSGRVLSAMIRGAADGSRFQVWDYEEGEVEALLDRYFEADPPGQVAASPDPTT

What follows are targets tested with Nc1nc2c(ncn2[C@@H]2O[C@H](COP(=O)(O)OP(=O)(O)OP(=O)(O)O)[C@@H](O)[C@H]2O)c(=O)[nH]1 (assay: dose-dependent thermal stabilisation call (2D-TPP, DLPTP, 10% FDR) (binary (1 = stabilised)); higher = stabilised by the compound). Details: system: Jurkat gel-filtered lysate; concentration range 1-500 µM.

Target | dose-dependent thermal stabilisation call
DIAPH2 (UniProt O60879) | inactive: 0
DAXX (UniProt Q9UER7) | inactive: 0
DSCR3 (UniProt O14972) | active: 1
CWC25 (UniProt Q9NXE8) | inactive: 0
DOK1 (UniProt Q99704) | inactive: 0
DDT (UniProt P30046) | inactive: 0
DTWD1 (UniProt Q8N5C7) | active: 1
DDX49 (UniProt Q9Y6V7) | active: 1
EARS2 (UniProt Q5JPH6) | inactive: 0
CWF19L2 (UniProt Q2TBE0) | inactive: 0
CTR9 (UniProt Q6PD62) | inactive: 0
DHRS4 (UniProt Q9BTZ2) | inactive: 0
DPF2 (UniProt Q92785) | inactive: 0
DXO (UniProt O77932) | inactive: 0
EDC3 (UniProt Q96F86) | inactive: 0
DPCD (UniProt Q9BVM2) | inactive: 0
DCAF13 (UniProt Q9NV06) | inactive: 0
CYHR1 (UniProt P0DTL5) | inactive: 0

Target | dose-dependent thermal stabilisation call
DSTN (UniProt P60981) | inactive: 0
CRYZ (UniProt Q08257) | inactive: 0
CROT (UniProt Q9UKG9) | inactive: 0
DNAJB6 (UniProt O75190) | inactive: 0
DNAAF2 (UniProt Q9NVR5) | inactive: 0
DDX23 (UniProt Q9BUQ8) | active: 1
DRG2 (UniProt P55039) | active: 1
CRKL (UniProt P46109) | inactive: 0
DNAJC21 (UniProt Q5F1R6) | inactive: 0
DUT (UniProt P33316) | inactive: 0
DUSP12 (UniProt Q9UNI6) | inactive: 0
ECD (UniProt O95905) | inactive: 0
DYNLRB1 (UniProt Q9NP97) | inactive: 0
DNASE2 (UniProt O00115) | inactive: 0
DMTF1 (UniProt Q9Y222) | inactive: 0
DNPH1 (UniProt O43598) | active: 1
CRYL1 (UniProt Q9Y2S2) | active: 1
CSK (UniProt P41240) | inactive: 0

Given tab-delimited: entries from further up
Target	dose-dependent thermal stabilisation call
DUT (UniProt P33316)	inactive: 0
DUSP12 (UniProt Q9UNI6)	inactive: 0
ECD (UniProt O95905)	inactive: 0
DYNLRB1 (UniProt Q9NP97)	inactive: 0
DNASE2 (UniProt O00115)	inactive: 0
DMTF1 (UniProt Q9Y222)	inactive: 0
DNPH1 (UniProt O43598)	active: 1
CRYL1 (UniProt Q9Y2S2)	active: 1
